These are yes or no findings as the source states them, for the method shown. In cells and extracts the contact can be indirect. These calls come from enrichment with a bait or labelling near it, and not all partners need be listed.
B1: SHIP1 (human) (enzyme, UniProt Q92835 1-1189)
chain: MVPCWNHGNITRSKAEELLSRTGKDGSFLVRASESISRAYALCVLYRNCVYTYRILPNEDDKFTVQASEGVSMRFFTKLDQLIEFYKKENMGLVTHLQYPVPLEEEDTGDDPEEDTVESVVSPPELPPRNIPLTASSCEAKEVPFSNENPRATETSRPSLSETLFQRLQSMDTSGLPEEHLKAIQDYLSTQLAQDSEFVKTGSSSLPHLKKLTTLLCKELYGEVIRTLPSLESLQRLFDQQLSPGLRPRPQVPGEANPINMVSKLSQLTSLLSSIEDKVKALLHEGPESPHRPSLIPPVTFEVKAESLGIPQKMQLKVDVESGKLIIKKSKDGSEDKFYSHKKILQLIKSQKFLNKLVILVETEKEKILRKEYVFADSKKREGFCQLLQQMKNKHSEQPEPDMITIFIGTWNMGNAPPPKKITSWFLSKGQGKTRDDSADYIPHDIYVIGTQEDPLSEKEWLEILKHSLQEITSVTFKTVAIHTLWNIRIVVLAKPEHENRISHICTDNVKTGIANTLGNKGAVGVSFMFNGTSLGFVNSHLTSGSEKKLRRNQNYMNILRFLALGDKKLSPFNITHRFTHLFWFGDLNYRVDLPTWEAETIIQKIKQQQYADLLSHDQLLTERREQKVFLHFEEEEITFAPTYRFERLTRDKYAYTKQKATGMKYNLPSWCDRVLWKSYPLVHVVCQSYGSTSDIMTSDHSPVFATFEAGVTSQFVSKNGPGTVDSQGQIEFLRCYATLKTKSQTKFYLEFHSSCLESFVKSQEGENEEGSEGELVVKFGETLPKLKPIISDPEYLLDQHILISIKSSDSDESYGEGCIALRLEATETQLPIYTPLTHHGELTGHFQGEIKLQTSQGKTREKLYDFVKTERDESSGPKTLKSLTSHDPMKQWEVTSRAPPCSGSSITEIINPNYMGVGPFGPPMPLHVKQTLSPDQQPTAWSYDQPPKDSPLGPCRGESPPTPPGQPPISPKKFLPSTANRGLPPRTQESRPSDLGKNAGDTLPQEDLPLTKPEMFENPLYGSLSSFPKPAPRKDQESPKMPRKEPPPCPEPGILSPSIVLTKAQEADRGEGPGKQVPAPRLRSFTCSSSAEGRAAGGDKSQGKPKTPVSSQAPVPAKRPIKPSRSEINQQTPPTPTPRPPLPVKSPAVLHLQHSKGRDYRDNTELPHHGKHRPEEGPPGPLGRTAMQ

The chains behind the UniProt entries cited, without tags or fusion partners. Residues count along the entry.
UniProt P01589, residues 22-272: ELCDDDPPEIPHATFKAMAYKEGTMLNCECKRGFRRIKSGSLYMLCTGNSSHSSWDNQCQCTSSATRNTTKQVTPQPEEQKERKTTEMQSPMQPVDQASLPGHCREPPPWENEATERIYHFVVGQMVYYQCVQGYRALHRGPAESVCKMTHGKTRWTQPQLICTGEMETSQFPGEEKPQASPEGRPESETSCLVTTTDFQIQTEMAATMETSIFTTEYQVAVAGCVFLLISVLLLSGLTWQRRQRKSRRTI
UniProt P29350: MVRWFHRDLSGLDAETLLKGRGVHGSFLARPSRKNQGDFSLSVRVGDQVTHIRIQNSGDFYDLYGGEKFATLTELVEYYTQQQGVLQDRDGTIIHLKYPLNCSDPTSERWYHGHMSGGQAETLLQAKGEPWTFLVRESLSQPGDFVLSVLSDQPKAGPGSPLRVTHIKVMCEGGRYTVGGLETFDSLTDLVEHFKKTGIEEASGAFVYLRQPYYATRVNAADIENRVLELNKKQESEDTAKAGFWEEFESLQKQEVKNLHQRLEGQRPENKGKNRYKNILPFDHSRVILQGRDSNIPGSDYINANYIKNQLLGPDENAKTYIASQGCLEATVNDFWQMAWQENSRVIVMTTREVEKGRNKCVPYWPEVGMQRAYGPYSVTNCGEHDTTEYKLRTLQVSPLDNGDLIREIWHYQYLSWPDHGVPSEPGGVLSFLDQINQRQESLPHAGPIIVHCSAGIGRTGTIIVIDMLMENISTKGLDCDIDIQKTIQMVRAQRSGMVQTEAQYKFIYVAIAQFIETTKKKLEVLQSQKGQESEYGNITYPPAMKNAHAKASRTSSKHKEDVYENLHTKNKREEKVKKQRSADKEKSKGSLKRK

Molecular target: CD25^WT-BirA (UniProt P01589)
Assay: proximity labelling

| Molecule | binding |
| --- | --- |
| SHP1 (human) (from UniProt P29350 1-595) (enzyme) | binds |
| B1 | binds |

From publication doi:10.1101/2023.03.13.532151
